Data as given in PubChem BioAssay AID743255 (National Center for Advancing Translational Sciences (NCATS), 2014).
The whole screen tested about 390,000 compounds, of which about 910 (0.23%) were called active. Inconclusive means that the source gave no clear call. Such entries were picked first, then a sample of the others. Calls follow the shape of the dose curve; as a rule, active = well fitted inhibition curve with a large enough effect; inconclusive = small, poorly fitted or top-dose-only effect; inactive = no such curve, though single readings can be large or run the other way. Potencies of inconclusive entries are doubtful fits and often do not repeat.

Chains of the proteins cited; added tags and fusions are not shown. Lines headed by an entry give the natural chain unless they say otherwise; changes in a name come on top.
UniProt O94782: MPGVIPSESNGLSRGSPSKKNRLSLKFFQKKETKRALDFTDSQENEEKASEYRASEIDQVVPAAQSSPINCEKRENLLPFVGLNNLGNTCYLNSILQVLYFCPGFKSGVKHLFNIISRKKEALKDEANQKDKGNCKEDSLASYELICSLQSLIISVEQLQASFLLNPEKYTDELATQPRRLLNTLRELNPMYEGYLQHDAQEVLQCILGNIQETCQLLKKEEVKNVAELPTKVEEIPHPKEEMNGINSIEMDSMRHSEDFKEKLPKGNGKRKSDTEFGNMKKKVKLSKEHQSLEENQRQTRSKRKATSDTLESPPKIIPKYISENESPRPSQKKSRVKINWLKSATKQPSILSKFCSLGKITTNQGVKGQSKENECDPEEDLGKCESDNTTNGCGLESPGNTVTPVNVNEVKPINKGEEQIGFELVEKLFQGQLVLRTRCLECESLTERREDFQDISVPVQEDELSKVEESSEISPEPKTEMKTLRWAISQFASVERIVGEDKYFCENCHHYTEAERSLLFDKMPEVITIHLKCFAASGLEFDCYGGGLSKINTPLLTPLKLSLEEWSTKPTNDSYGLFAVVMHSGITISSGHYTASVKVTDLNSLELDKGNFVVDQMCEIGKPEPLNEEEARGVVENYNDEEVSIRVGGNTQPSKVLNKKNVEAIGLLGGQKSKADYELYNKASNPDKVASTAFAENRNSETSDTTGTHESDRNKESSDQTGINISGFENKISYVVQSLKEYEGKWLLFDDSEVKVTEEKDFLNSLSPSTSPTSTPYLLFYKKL

Biological target: Ubiquitin carboxyl-terminal hydrolase 1 (Homo sapiens) (UniProt O94782)
Test: Inhibitors of USP1/UAF1: Primary Screen; also: nearly all actives have a fitted effect of over 60% in size
Settings: recombinant USP1/UAF1, Ub-Rhodamine cleavage fluorescence; activity change, negative = inhibition: at 57.1 µM (top of the series)
Method in brief: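 In this screen, compounds sit with the deubiquitinase complex (1nM) for 15 min at room temperature before Ub-Rho is added at 150nM final. Fluorescence rise is then followed for 6 reads every 60 seconds.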
% is scaled to controls: 0 for no effect and ±100 for the full control effect; potency is read from the fitted curve at half-maximal effect.

Compound	Potency	activity change, negative = inhibition
CCOC(=O)c1noc2nc(C)n(CC(=O)Nc3cccc(OC)c3)c(=O)c12	inconclusive: 7.08 µM [inhibitor, single point]	
O=c1cc(CSc2nnc(-c3cccs3)n2Cc2ccccc2)nc2sc3ccccc3n12	inconclusive: 44.7 µM [inhibitor, partial curve, poor fit]	
C/C(=N\Nc1cc(C)nc(-c2ccccc2O)n1)c1ccccc1O	inactive	
CCn1cc2c(n1)-c1c(oc(C(=O)Nc3ccc(Br)cc3F)c1C)CC2	inconclusive: 8.91 µM [inhibitor, full curve, poor fit]	
N#Cc1c(N)sc(=S)c2c1CCCC2	inactive	
CC(=O)C1=C(O)C(=O)N(c2ccc(Br)cc2)C1c1ccc([N+](=O)[O-])cc1 (stereo not drawn)	inconclusive: 56.2 µM [inhibitor, partial curve, poor fit]	
C=CCc1c(C)[nH]c(=S)c(C#N)c1C	inactive	
CN(C(=O)Cn1nc(Cc2cccnc2)c2ccccc2c1=O)c1cccc(C(F)(F)F)c1	inactive	
CCCc1cc(=O)oc2c3c(ccc12)OCN(Cc1ccccc1OC)C3	inactive	
O=C(NCc1ccco1)c1ccc(Br)c(S(=O)(=O)N2CCCCC2)c1	inconclusive: 28.2 µM [inhibitor, single point]	
Cc1cc(C)c(C)c(N=Nc2nc3ccccc3n2C)c1C	inconclusive: 31.6 µM [inhibitor, partial curve]	
CN(C)c1ccc(-c2nnn(CC(=O)Nc3ccccc3N3CCOCC3)n2)cc1	inconclusive: 1.78 µM [inhibitor, full curve]	
Cc1cc(Cl)ccc1-n1c(CCC(=O)O)ccc1-c1cccs1	inconclusive: 0.562 µM [inhibitor, full curve]	
Cc1sc(NC(=O)c2ccc(Br)s2)c(C(N)=O)c1C	inactive	
CCCCOc1ccccc1C1CC(=O)Nc2ccc3ccccc3c21 (stereo not drawn)	inconclusive: 12.6 µM [inhibitor, partial curve, poor fit]	
COc1ccccc1CCNC(=O)Cc1c(C)c2cc(Cl)c(O)cc2oc1=O	inconclusive: 15.8 µM [inhibitor, partial curve, poor fit]	
O=C(c1ccc2c(c1)N(Cc1ccc(Cl)cc1)C(=O)c1ccccc1S2(=O)=O)N1CCCC1	inactive	
Cc1ccc(CCNC(=O)C2CCCN(S(=O)(=O)c3c(C)nn(C)c3C)C2)cc1 (stereo not drawn)	inconclusive: 17.8 µM [inhibitor, partial curve]	
Cc1cc(C)cc(NC(=S)Nc2ccc3cn[nH]c3c2)c1	inactive	
Cc1cc(C)cc(OCC(=O)Nc2cccc3cccnc23)c1	inconclusive: 44.7 µM [inhibitor, partial curve, poor fit]	
Cc1cccn2c(=O)c3cc(C(=O)NCCN4CCOCC4)c(=N)n(CCc4ccccc4)c3nc12	inactive	
CC(=O)Nc1ccc(NC(=O)CCCc2c[nH]c3ccccc23)cc1	inactive	
CCN(CC)CCNC(=O)c1ccc(NC(=O)c2cn(-c3ccc(F)cc3)nc2-c2cccc(OC)c2)cc1	inactive	

Compound	Potency	activity change, negative = inhibition
CCCS(=O)(=O)c1c(S(=O)(=O)CCC)c2cnccn2c1C(=O)c1ccc(F)cc1	inconclusive: 31.6 µM [inhibitor, partial curve]	
NC(=O)C1CCN(S(=O)(=O)c2cc3c(cc2Cl)NC(=O)CO3)CC1	inconclusive: 5.62 µM [inhibitor, partial curve]	
CCOc1ccc(NS(=O)(=O)c2c(C)nc3sc(C)c(C)n3c2=O)cc1	inconclusive: 8.91 µM [inhibitor, partial curve]	
CCOC(=O)C1CCN(C(=O)c2ccccc2NC(=O)c2nsc3ccccc23)CC1	inconclusive: 0.282 µM [inhibitor, full curve, poor fit]	
CCOC(=O)C1CCN(C(=O)c2cc3sc(C)cc3n2C)CC1	inconclusive: 8.91 µM [inhibitor, single point]	
C[C@H](O)[C@@H]1C(=O)N2CCc3ccc(-c4ccccc4)cc3[C@@H]2C[C@@H]1N(C)C(=S)Nc1ccc(F)cc1		inconclusive: -27.3% [inhibitor]
O=C(CN1CCN(C(c2ccccc2)c2ccccc2)CC1)N1CCOCC1	inactive	
COc1ccc(C(Sc2ccccc2)c2ccccc2)cc1OC (stereo not drawn)	inconclusive: 100 µM [inhibitor, partial curve, poor fit]	
COc1ccc(N=Nc2c(N)n[nH]c2N)cc1	inconclusive: 0.355 µM [inhibitor, full curve, poor fit]	
COc1ccc(NC(=O)CSc2nnc(-c3ccco3)c(-c3ccco3)n2)cc1OC	inconclusive: 44.7 µM [inhibitor, partial curve, poor fit]	
CCCc1nnc(NC(=O)Nc2ccccc2Cl)s1	inconclusive: 3.98 µM [inhibitor, single point]	
O=C(NCCCn1ccnc1)/C(=C/c1ccc(F)cc1)NC(=O)c1ccccc1	inconclusive: 7.08 µM [inhibitor, single point]	
CCc1ccc(S(=O)(=O)Nc2cc(SCC(=O)O)c(O)c3ccccc23)cc1	inconclusive: 31.6 µM [inhibitor, single point]	
CCC(=O)Nc1ccc(NC(=O)CSc2nnc(-c3ccc(O)cc3)n2CC2CCCO2)cc1 (stereo not drawn)	inconclusive: 1.41 µM [inhibitor, full curve, poor fit]	
COc1ccc(C)cc1NC(=O)c1oc2ccc(S(=O)(=O)N3CCC4(CC3)OCCO4)cc2c1C	inactive	
CCC[n+]1c2ccccc2cc2ccccc21	inconclusive: 15.8 µM [inhibitor, partial curve]	
COc1ccc(C)cc1NC(=O)c1nnn(-c2c(C)cccc2C)c1C	inactive	
CC(=O)Nc1nnc2n1CCS2	inconclusive: 6.31 µM [inhibitor, single point]	
CCCCCCc1c(C)nc(-n2[nH]c(C)c(CCO)c2=O)[nH]c1=O	inconclusive: 31.6 µM [inhibitor, partial curve]	
CC(C)Cn1c(=O)c2ccccc2n2c(CCC(=O)Nc3ccc(F)cc3)nnc12	inconclusive: 0.891 µM [inhibitor, full curve, poor fit]	
CCCN(CCC)C(=O)c1nn(C)c2c1CSc1ccc(C)cc1-2	inactive	
COc1ccc(N2C(=O)CSC23C(=O)N(Cc2ccc(C)cc2)c2ccccc23)cc1Cl (stereo not drawn)	inconclusive: 50.1 µM [inhibitor, partial curve, poor fit]	
Nc1nc(N)c2[nH]c(=S)[nH]c2n1		inconclusive: -15.1% [inhibitor]

Compound	Potency	activity change, negative = inhibition
C/C(=N\NC(=O)c1ccoc1C)c1ccccc1	inconclusive: 4.47 µM [inhibitor, single point]	
CN(C)CCNc1oc(COc2cccc(Cl)c2)nc1C#N	inactive	
O=C(COC(=O)c1ccccc1F)NC1CCCC1	inactive	
Cc1no[n+]([O-])c1COc1cccc(/C=N/Nc2nncn2N)c1	inconclusive: 35.5 µM [inhibitor, partial curve, poor fit]	
CCC(C)Oc1ccc(/C=C/c2[nH]c(=O)[nH]c(=O)c2[N+](=O)[O-])cc1OC (stereo not drawn)	inactive	
O=C(Nc1cccc(-n2cccn2)c1)C1CCCN(Cc2ccccc2F)C1 (stereo not drawn)	inactive	
CCc1ccc(NC(=O)CN2C(=O)c3ccccc3Sc3ccc(C(=O)N4CCCC4)cc32)cc1		inconclusive: -30.4% [inhibitor]
O=C(/C=C/c1ccco1)Nc1cccc2cccnc12	inconclusive: 20 µM [inhibitor, partial curve]	
COc1cc(CNn2cn[nH]c2=S)cc(Br)c1OCc1ccccc1F	inconclusive: 25.1 µM [inhibitor, partial curve]	
COc1cccc(-c2csc(N3CCN(S(=O)(=O)c4ccc(F)cc4)CC3)n2)c1	inconclusive: 44.7 µM [inhibitor, single point]	
Cc1ccc(C)c(N2CCN(C(=O)CCc3nc(-c4ccc(Br)cc4)no3)CC2)c1	inconclusive: 17.8 µM [inhibitor, partial curve]	
CC(CNC(=O)c1ccc(Cn2c(=O)c3cccn3c3cccnc32)cc1)c1ccccc1 (stereo not drawn)	inactive	
CNC(=S)N(CCc1ccc(OC)c(OC)c1)C1CC(=O)N(c2ccccc2)C1=O (stereo not drawn)	inconclusive: 44.7 µM [inhibitor, partial curve, poor fit]	
Cc1cn(C)c(CC(=O)Nc2cccc(C#N)c2)c1C(=O)O	inconclusive: 50.1 µM [inhibitor, partial curve, poor fit]	
O=C1N/C(=N\N=C\c2cccnc2)SC1Cc1ccc(SC(F)F)cc1 (stereo not drawn)	inactive	
CCOc1ncccc1C(=O)Nc1cccc(Cl)c1Cl	inconclusive: 0.224 µM [inhibitor, full curve, poor fit]	
COc1ccc(-c2cc3nc(C)c(CCC(=O)NCCc4ccc(Cl)cc4)c(C)n3n2)c(OC)c1	inconclusive: 0.0891 µM [inhibitor, full curve, poor fit]	
CC1=C(C(=O)N2CCOCC2)CC(CC(=O)NC2CCCC2)C(=O)N1Cc1ccccc1 (stereo not drawn)	inconclusive: 0.251 µM [inhibitor, full curve]	
COc1ccc(C(=O)NCc2nnc(SCC(=O)N3CCCC3)o2)cc1OC	inactive	
Fc1ccc2[nH]c3c(N4CCSCC4)ncnc3c2c1	inconclusive: 44.7 µM [inhibitor, partial curve]	
CCOC(=O)c1c(C)[nH]c(C(=O)OCC(O)=C(C#N)c2nc3ccccc3[nH]2)c1C	inconclusive: 39.8 µM [inhibitor, partial curve, poor fit]	
COc1ccc(Oc2cc(NN3CCCCC3)c([N+](=O)[O-])cc2[N+](=O)[O-])cc1OC		inconclusive: -29.8% [inhibitor]

Fetched by compound from the entries so far:
Compound	Potency	activity change, negative = inhibition
O=C1N/C(=N\N=C\c2cccnc2)SC1Cc1ccc(SC(F)F)cc1 (stereo not drawn)	inactive	
Fc1ccc2[nH]c3c(N4CCSCC4)ncnc3c2c1	inconclusive: 44.7 µM [inhibitor, partial curve]	
O=C(COC(=O)c1ccccc1F)NC1CCCC1	inactive	
